Laboratory results from paper PMC8563733, “The transcriptional corepressor CtBP2 serves as a metabolite sensor orchestrating hepatic glucose and lipid homeostasis” (Nature Communications, 2021).
Results are given in words; binding and its absence hold for the method and conditions named. In cells and extracts the contact can be indirect. A result given as binding can be weak or reduced; the word gives no strength.

The chains behind the UniProt entries cited, without tags or fusion partners. Where a name states a change or a piece, a line headed by the entry shows the natural chain unless it says otherwise.
UniProt Q9R1E0: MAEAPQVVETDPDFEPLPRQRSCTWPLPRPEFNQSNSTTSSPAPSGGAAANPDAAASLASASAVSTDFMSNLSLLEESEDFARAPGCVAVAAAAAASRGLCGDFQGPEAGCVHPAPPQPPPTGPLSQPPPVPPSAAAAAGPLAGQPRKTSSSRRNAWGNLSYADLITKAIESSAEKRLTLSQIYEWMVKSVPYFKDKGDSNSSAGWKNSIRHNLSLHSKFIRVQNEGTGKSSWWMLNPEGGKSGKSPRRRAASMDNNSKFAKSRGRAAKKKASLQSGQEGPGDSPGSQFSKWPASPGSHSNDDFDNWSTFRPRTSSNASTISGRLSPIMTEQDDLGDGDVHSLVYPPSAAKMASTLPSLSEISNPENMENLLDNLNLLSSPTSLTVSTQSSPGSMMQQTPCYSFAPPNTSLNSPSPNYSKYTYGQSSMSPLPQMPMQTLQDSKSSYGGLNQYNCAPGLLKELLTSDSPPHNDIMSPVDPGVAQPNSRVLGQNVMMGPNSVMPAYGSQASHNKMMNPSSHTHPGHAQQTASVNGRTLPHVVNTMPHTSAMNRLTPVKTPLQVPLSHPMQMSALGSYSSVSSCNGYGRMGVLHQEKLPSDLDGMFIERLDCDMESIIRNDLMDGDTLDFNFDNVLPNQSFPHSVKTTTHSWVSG
UniProt P35222: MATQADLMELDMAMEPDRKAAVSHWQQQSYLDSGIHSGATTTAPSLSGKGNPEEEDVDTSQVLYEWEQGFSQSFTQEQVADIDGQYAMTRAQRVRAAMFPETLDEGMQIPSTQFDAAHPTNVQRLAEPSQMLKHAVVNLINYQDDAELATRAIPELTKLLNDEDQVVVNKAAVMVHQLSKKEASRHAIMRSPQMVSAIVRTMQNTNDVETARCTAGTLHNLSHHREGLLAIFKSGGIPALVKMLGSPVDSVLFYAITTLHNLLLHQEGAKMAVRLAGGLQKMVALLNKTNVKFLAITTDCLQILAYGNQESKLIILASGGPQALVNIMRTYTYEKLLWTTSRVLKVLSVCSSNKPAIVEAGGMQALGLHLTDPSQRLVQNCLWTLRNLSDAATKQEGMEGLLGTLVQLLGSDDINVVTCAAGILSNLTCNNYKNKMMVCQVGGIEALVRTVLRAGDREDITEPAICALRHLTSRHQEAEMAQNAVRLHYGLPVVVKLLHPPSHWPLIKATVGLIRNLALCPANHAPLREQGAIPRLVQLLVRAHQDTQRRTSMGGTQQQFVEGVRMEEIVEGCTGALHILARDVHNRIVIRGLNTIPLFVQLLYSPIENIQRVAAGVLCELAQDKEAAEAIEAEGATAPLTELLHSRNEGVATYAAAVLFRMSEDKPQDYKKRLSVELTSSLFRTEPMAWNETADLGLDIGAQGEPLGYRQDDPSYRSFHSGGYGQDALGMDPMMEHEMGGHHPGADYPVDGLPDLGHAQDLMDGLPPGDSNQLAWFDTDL

Assays:
[1] = biological target: FLAG FoxO1 with the PSDL motif deleted (UniProt Q9R1E0); assay: co-IP; HEK293 cells transfected with FLAG-FoxO1 (wild type or mutated) and CtBP1 or CtBP2; FLAG M2 magnetic beads, buffer A with 0.5% NP40, 4 h at 4 °C, eluted with 3x FLAG peptide; in some panels NADH, oleoyl-CoA, acetyl-CoA or sodium oleate added to the lysates (8 h at 4 °C), or cells treated with lactate/pyruvate, koningic acid or palmitate-BSA with ACSL1
[2] = biological target: FLAG FoxO1 with the PSDL motif mutated to PSAS (UniProt Q9R1E0); assay: as above
[3] = biological target: NR5A2(LRH-1) with the PSDL motif deleted (UniProt P45448); assay: co-IP; HEK293 cells expressing CtBP2 and NR5A2(LRH-1), wild type or mutated in the PSDL motif; which protein was precipitated not given
[4] = biological target: NR5A2(LRH-1) with the PSDL motif mutated to PSAS (UniProt P45448); assay: as above

Measured: binding

C-terminal binding protein 2 (CtBP2) (from UniProt P56545 1-445)
binds: all assays above

β-catenin (from UniProt P35222 1-781)
binds: [1] | [2]
